# Results from one PubChem assay

Data taken from PubChem BioAssay AID687032, deposited by Broad Institute (2013).

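IOSE-T80 ovarian epithelial cells, a line not reliant on PAX8, given compound for 96 h, with viability tracked through ATP-driven luciferase light. Percent change in signal scaled so neutral controls are 0 and the cytotoxic control is -100; more negative values mean greater loss of viability. Per repeat run, active means fitted AC50 at or below twice the top valid dose; inactive means a flat curve between -30% and 30%, an opposite effect, or AC50 above that limit; inconclusive means a flat -30% to -70% curve, a poor fit, or runs that disagree.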

Values are in %. Every entry below has the call inconclusive. These entries are mostly ones the record files as inconclusive; other results of the assay are not listed here.

| Compound | condition | activity change (%) |
|---|---|---|
| `O=C(Nc1ccc(N2CCN(C(=O)c3cccs3)CC2)cc1)c1ccc([N+](=O)[O-])o1` | at 35 µM (top of the series) | 5.693 |
| `CCCCCCCN(C(=O)CCl)c1cccc(C)c1` | at 35 µM (top of the series) | 9.392 |
| `CC(/C=C1\SC(=O)N(CC(=O)Nc2ccc(O)cc2)C1=O)=C\c1ccccc1` | at 35 µM (top of the series) | -1.392 |
| `COc1ccc(C2=NNC(=Nc3cc(S(=O)(=O)N(C)C)ccc3C)SC2)c(OC)c1` | at 35 µM (top of the series) | -18.69 |
| `Oc1[nH]c2ccc(Br)cc2c1N=NC(=S)N1CCOCC1` | at 35 µM (top of the series) | 5.38 |
| `COc1ccc(C[C@H](N)C(=O)N[C@H]2[C@@H](O)[C@H](n3cnc4c(N(C)C)ncnc43)O[C@@H]2CO)cc1` | at 35 µM (top of the series) | 1.098 |
| `O=C(CCCCCCC(=O)Nc1ccccc1)NO` | at 35 µM (top of the series) | 6.071 |
| `C[C@@H]1CN([C@@H](C)CO)C(=O)Cc2cc(NS(=O)(=O)c3ccccc3)ccc2O[C@H]1CN(C)Cc1ccc(Cl)c(Cl)c1` | at 35 µM (top of the series) | 11.36 |
| `O=C(Nc1cccc(Cl)c1)Nc1nnc(CSCCOc2ccc(Cl)cc2)s1` | at 35 µM (top of the series) | 5.368 |
| `Cc1ccc(-c2ccc([C@@H]3[C@H](CO)N4CCCCN(C(=O)Nc5cccc(F)c5)C[C@@H]34)cc2)cc1` | at 35 µM (top of the series) | 9.562 |
| `Cc1cc(C)c2nc(SCC(=O)N3CC(=O)Nc4ccccc43)c(C#N)cc2c1` | at 35 µM (top of the series) | 12.01 |
| `C[C@H](CO)N1C[C@H](C)[C@H](CN(C)CC2CCCCC2)OCCCC[C@H](C)Oc2ccc(NC(=O)Nc3ccccc3)cc2C1=O` | at 35 µM (top of the series) | 15.1 |
| `CC(=O)C1=C(O)C(=O)N(CCc2ccccc2)C1c1ccccc1[N+](=O)[O-]` (centres undefined) | at 35 µM (top of the series) | 21.97 |
| `COC(=O)C1C=CC(OC2OC(COC(C)=O)C(OC(C)=O)C(OC(C)=O)C2OC(C)=O)n2c(=O)n(-c3ccccc3)c(=O)n21` (centres undefined) | at 35 µM (top of the series) | 12.62 |
| `COc1cccc2c1C(=O)c1c(O)c3c(c(O)c1C2=O)C[C@@](O)(C(C)=O)C[C@@H]3O[C@H]1C[C@H](N)[C@H](O)[C@H](C)O1` | at 35 µM (top of the series) | -42.12 |
| `C[C@@H]1CN([C@@H](C)CO)C(=O)Cc2cc(NC(=O)Nc3ccc(C(F)(F)F)cc3)ccc2O[C@@H]1CN(C)S(=O)(=O)c1ccc(Cl)cc1` | at 35 µM (top of the series) | -1.925 |
| `CC[C@]1(O)C[C@@H]2CN(CCc3c([nH]c4ccccc34)[C@@](C(=O)OC)(c3cc4c(cc3OC)N(C)[C@H]3[C@@](O)(C(=O)OC)[C@H](OC(C)=O)[C@]5(CC)C=CCN6CC[C@]43[C@@H]65)C2)C1` | at 35 µM (top of the series) | -0.132 |
| `C=CCn1c(C)cc(C2=NNC(=NCC)SC2)c1C` | at 35 µM (top of the series) | 7.34 |
| `COc1ccc(/C=C2\CN(Cc3ccccc3)C/C(=C\c3ccc(OC)c(O)c3)C2=O)cc1O` | at 35 µM (top of the series) | 2.323 |
| `O=C(COC(=O)/C(=C/c1cccs1)c1cccs1)NC(c1ccccc1)c1ccccc1` | at 35 µM (top of the series) | 3.631 |
| `C#CC(=O)N(c1ccc(OC)cc1OC)C(C(=O)NC1CCCC1)c1cccs1` (centres undefined) | at 35 µM (top of the series) | 10.91 |
| `COc1ccc2c(c1)OC/C(=C/c1cccs1)C2=O` | at 35 µM (top of the series) | 2.722 |
| `COc1cc2c(c(OC)c1OC)-c1ccc(SC)c(=O)cc1C(NC=O)CC2` (centres undefined) | at 35 µM (top of the series) | 9.156 |
| `CCSc1nsc(NC(=O)Nc2cccc(F)c2)n1` | at 35 µM (top of the series) | 0.516 |
| `COc1ccc(S(=O)(=O)Nc2ccc3c(c2)C(=O)N([C@H](C)CO)C[C@@H](C)[C@H](CN(C)C(=O)Nc2ccc(C(F)(F)F)cc2)OCCCC[C@H](C)O3)cc1` | at 35 µM (top of the series) | 15.6 |
| `CN(C(=O)OC(C)(C)C)c1ccc(-c2nc3ccccc3s2)cc1` | at 35 µM (top of the series) | -2.009 |
| `O=C(Nc1ccccc1)N1CCCCN2[C@@H](CO)[C@@H](c3ccc(C#Cc4ccccc4)cc3)[C@@H]2C1` | at 30 µM (top of the series) | 20.79 |
| `C[C@@H]1CN([C@@H](C)CO)S(=O)(=O)c2ccc(C#Cc3ccc(F)cc3)cc2O[C@@H]1CN(C)C(=O)NC1CCCCC1` | at 35 µM (top of the series) | -40.98 |
| `COc1cc2c(c(OC)c1OC)-c1ccc(OC)c(=O)cc1C(NC(C)=O)CC2` (centres undefined) | at 35 µM (top of the series) | 11.14 |
| `O=S(=O)(c1ccccc1)N1CCCCN2[C@H](CO)[C@H](c3ccc(-c4ccccc4F)cc3)[C@H]2C1` | at 35 µM (top of the series) | 12.06 |
| `OCC1OC(n2cnc3c(NCc4ccccc4O)ncnc32)C(O)C1O` (centres undefined) | at 35 µM (top of the series) | 0.449 |
| `CSC(=Nc1ccccc1)N=C(SCc1ccccc1)N(C)C` | at 35 µM (top of the series) | 19.28 |

The last 2 entries again:

* OCC1OC(n2cnc3c(NCc4ccccc4O)ncnc32)C(O)C1O (centres undefined) [at 35 µM (top of the series)] : activity change 0.449%
* CSC(=Nc1ccccc1)N=C(SCc1ccccc1)N(C)C [at 35 µM (top of the series)] : activity change 19.28%